Measurements published in publication PMC11243337.
pKd: −log10 of the molar value. Construct, isoform or probe ends are uncertain for at least one entry. For some of these results: The comparison behind a weaker result is the experiment's own reference, which may not be listed here. For some of these results: At least one verdict was read from the data and is not stated in words by the source.

Chains of the proteins cited; added tags and fusions are not shown. Residues count along the entry.
UniProt P24627, 20-708: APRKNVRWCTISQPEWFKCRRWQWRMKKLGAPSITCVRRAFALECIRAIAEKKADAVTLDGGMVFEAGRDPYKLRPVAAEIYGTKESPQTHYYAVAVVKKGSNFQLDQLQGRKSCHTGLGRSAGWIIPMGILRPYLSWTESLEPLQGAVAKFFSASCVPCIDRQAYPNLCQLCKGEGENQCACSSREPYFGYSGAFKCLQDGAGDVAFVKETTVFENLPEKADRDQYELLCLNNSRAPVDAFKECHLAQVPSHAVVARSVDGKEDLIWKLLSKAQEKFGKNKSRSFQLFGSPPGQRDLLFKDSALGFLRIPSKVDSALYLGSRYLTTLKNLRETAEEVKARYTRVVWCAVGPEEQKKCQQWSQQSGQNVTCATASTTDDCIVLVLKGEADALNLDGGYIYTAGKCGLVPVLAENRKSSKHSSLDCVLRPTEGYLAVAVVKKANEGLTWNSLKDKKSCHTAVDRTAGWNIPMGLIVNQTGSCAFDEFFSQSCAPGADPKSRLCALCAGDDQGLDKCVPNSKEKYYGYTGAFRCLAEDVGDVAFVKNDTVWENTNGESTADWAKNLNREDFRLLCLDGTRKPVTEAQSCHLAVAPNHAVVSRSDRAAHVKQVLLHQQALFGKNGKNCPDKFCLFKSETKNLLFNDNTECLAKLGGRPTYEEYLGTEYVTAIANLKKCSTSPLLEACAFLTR

Tests used:
[1] = target: Lactoferrin (Lf) (bovine (cow's milk)) (UniProt P24627); assay: not stated here (CE-SELEX work); details: Lf species in cited work not stated here; Tris-EDTA pH 8.0, no added salt, 25 C, 10 min; 90 uL of 50 nM aptamer + 100 uL Lf (0-100 ug/mL); Ex 485/Em 528 nm. Specificity section; commercial protein; single-stranded DNA
[2] = target: Lactoferrin (Lf) (bovine (cow's milk)) (UniProt P24627); assay: fluorescence quenching (6-FAM); details: Tris-EDTA pH 8.0, no added salt, 25 C, 10 min, 90 uL of 50 nM aptamer + 100 uL Lf (0-100 ug/mL), Ex 485/Em 528 nm. Specificity section, commercial protein, label: 3'-6-FAM, single-stranded DNA

| Sequence | pKd [1] | binding result ([2]; Mg2+ or Ca2+, 50 or 100 mM, stronger effect than monovalent) | binding result ([2]; Na+ or K+, 50 or 100 mM) | binding result ([2]; citrate buffer or borate buffer) |
| --- | --- | --- | --- | --- |
| TGGTGCTGCCCCTAGTCTCCGGCTGATAGCTGCTTCTTGG [Lf aptamer (Qu's group, as cited)] | 7.68 | – | – | – |
| TGGTGCTGCCCCTAGTCTCCGGCTGATAGCTGCTTCTTGG [Lf aptamer, 3'-6-FAM] | – | binds more weakly | binds more weakly | binds more weakly |
